Earlier results, collected in patent publication US8784849B2, “Hydroxyapatite-targeting poly(ethylene glycol) and related polymers” (Nektar Therapeutics, priority 2000, dated 2014).

Details: cited from earlier work

SMILES: CC(=O)O[C@H]1C(=O)[C@@]2(C)[C@H]([C@H](OC(=O)c3ccccc3)[C@]3(O)C[C@H](OC(=O)[C@H](O)[C@@H](NC(=O)c4ccccc4)c4ccccc4)C(C)=C1C3(C)C)[C@]1(OC(C)=O)CO[C@@H]1C[C@@H]2O [paclitaxel]
- solubility in water (in words): water-insoluble
